# Data as given in patent US10273243B2, “4-phenylpiperidines, their preparation and use” (The Trustees of Columbia University in the City of New York, priority 2013, dated 2019).
# Some entries share one result that the patent states for a list of compounds.
# Experiments:
# RBP4-TTR interaction = target: T1, RBP4-TTR interaction (Homo sapiens, UniProt P02753); assay: TR-FRET (HTRF) assay for retinol-induced RBP4-TTR interaction; assay type: biochemical; conditions: in vitro; stated 'and/or' with RBP4 binding; numbers only in FIG. 8-14
# T1 construct: human RBP4 fragment (amino acids 19-201) was expressed in the Gold (DE3)pLysS E. coli strain; host or cells: E. coli Gold (DE3)pLysS (Stratagene), pMAL-c4x vector
# RBP4 = RBP4 (Homo sapiens, UniProt P02753); assay: Scintillation proximity RBP4 binding assay (SPA); design: Untagged human RBP4 purified from urine of tubular proteinuria patients was purchased from Fitzgerald Industries International; purchased Fitzgerald Industries International; host or cells: human urine (tubular proteinuria patients); conditions: in vitro; stated 'and/or' with RBP4-TTR antagonism; numbers only in FIG. 8-14
Structure (SMILES),antagonism of retinol-dependent RBP4-TTR interaction (HTRF) (RBP4-TTR interaction),RBP4 binding (SPA) (RBP4)
Cc1nc2ccc(Cl)nn2c1C(=O)N1CCC(c2ccccc2C(F)(F)F)CC1 [Compound 109],antagonize RBP4-TTR interaction in vitro at biologically significant concentrations,bind RBP4 in vitro
CC(=O)N1CCc2c(C(=O)N3CCC(c4ccccc4C(F)(F)F)CC3)n[nH]c2C1 [Compound 110],antagonize RBP4-TTR interaction in vitro at biologically significant concentrations,bind RBP4 in vitro
